Test results taken from PubChem BioAssay AID504834 (National Center for Advancing Translational Sciences (NCATS), 2011).
Screen size: about 320,000 compounds; about 22,000 (6.9%) were called active. Inconclusive results, whose numbers are uncertain, are shown with a selection of clear calls. Calls come from the whole dose curve; as a rule, active = well fitted inhibition curve with a large enough effect; inconclusive = small, poorly fitted or top-dose-only effect, or another doubt; inactive = no such curve, though single readings can be large or run the other way. A potency beside an inconclusive call is a rough fit, not a confirmed value. The source holds several records for some structures; these can differ, active in one and inactive in another.

Assay: Primary qHTS for delayed death inhibitors of the malarial parasite plastid, 96 hour incubation
Conditions: P. falciparum luciferase reporter growth; series mostly up to 28.7 µM; activity change, negative = inhibition: at the top concentration
Summary of the method: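 P. falciparum expressing integrated firefly luciferase grown in erythrocytes (2% hematocrit, 0.05% parasitemia final) with compounds for 96 hours at 37 C, 5% CO2. Growth inhibition read as loss of luminescence after adding luciferase detection reagent.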
% is set by controls: 0 for no effect and ±100 for the full control effect; potency is the fitted concentration of half-maximal effect.

Structure (SMILES) | Potency | activity change, negative = inhibition
CNC(=S)N(CCc1c(C)[nH]c2ccc(C)cc12)Cc1cccnc1 | inconclusive: 9.28 µM [inhibitor, partial curve, poor fit] | –
CCCc1ccc(OCCNC(=O)c2ccccc2Br)cc1 | – | inactive: -8.4%
O=C(Cn1c(-c2ccccc2)c[n+]2ccsc12)c1ccccc1 | inconclusive: 1.47 µM [inhibitor, partial curve, poor fit] | –
Cc1c(Cl)cccc1NC(=O)c1cc(-c2ccco2)on1 | – | inactive: 168%
COc1ccc2nc(NC(=O)c3cccnc3SC)sc2c1 | – | inactive: 226%
CCN1CCN(CCc2nc3cc(NC(=O)COc4ccccc4)ccc3n2C)CC1 | inconclusive: 18.5 µM [inhibitor, single point] | –
C=CCN1C(=O)C(CC(C)C)NC1=S (configuration not stated) | active: 0.536 µM | –
COc1cccc(C(=O)Nc2nnc(-c3ccccc3)s2)c1 | inconclusive: 10.4 µM [inhibitor, partial curve] | –
Cc1ccccc1CN1CCN(CC(=O)NCc2ccc3c(c2)OCO3)C1=O | inconclusive: 18.5 µM [inhibitor, single point] | –
CCOc1ccc(S(=O)(=O)N2CCN(C(=O)c3ccc(-n4cncn4)c([N+](=O)[O-])c3)CC2)cc1 | inconclusive: 11.7 µM [inhibitor, partial curve] | –
Cc1ccc(OCC(=O)NC(=S)Nc2cccc(NC(=O)c3ccccc3)c2)cc1 | inconclusive: 18.5 µM [inhibitor, single point] | –
O=C(Oc1ccc(-n2cnnn2)cc1)c1ccco1 | inconclusive: 18.5 µM [inhibitor, single point] | –
CCCCNc1nc2c(c(=O)n(Cc3ccccc3)c(=O)n2C)n1C | – | inactive: 143%
C/C(=N\NC(=O)c1ccc([N+](=O)[O-])cc1)c1cc2ccccc2oc1=O | inconclusive: 16.5 µM [inhibitor, single point] | –
Cc1ccc(N2CC(C(=O)Nc3cc(C(F)(F)F)ccc3N3CCCC3)CC2=O)cc1 (configuration not stated) | inconclusive: 9.28 µM [inhibitor, single point] | –
CCc1cc(=O)oc2c(CNCc3c(F)cccc3Cl)c(O)ccc12 | inconclusive: 13.1 µM [inhibitor, single point] | –
COCCCN1CCN(c2nnc3n2-c2sc(Br)cc2C(c2ccccc2Cl)=NC3)CC1 | inconclusive: 2.08 µM [inhibitor, full curve, poor fit] | –
O=C(CN1C(=O)CC(c2ccco2)Sc2ccccc21)NCc1ccc2c(c1)OCO2 (configuration not stated) | inconclusive: 5.22 µM [inhibitor, partial curve] | –
C=CCOc1c(CCC)cc(CCC)cc1C(N)=O | inconclusive: 0.586 µM [inhibitor, full curve, poor fit] | –
CCOC(=O)CC(=O)CSc1[nH]c(=O)cc(C)c1C#N | – | inactive: -26.6%
O=C(Nc1ccc(CN2CCOCC2)cc1)c1ccc(-c2cccc([N+](=O)[O-])c2)o1 | active: 2.62 µM | –
CCCNC(=O)CS(=O)Cc1nc(-c2ccccc2C)oc1C (configuration not stated) | – | inactive: -22.8%
COC(=O)[C@@H]1CCCN1C(=O)CCc1nnc(CCc2c[nH]c3ccccc23)o1 | – | inactive: 6.32%

Structure (SMILES) | Potency | activity change, negative = inhibition
COc1ccccc1CC(=O)Nc1nc(-c2ccc(F)c(F)c2)cs1 | inconclusive: 18.5 µM [inhibitor, single point] | –
COC(=O)C(C(=O)OC)c1ncc(C(F)(F)F)cc1Cl | – | inactive: 8.72% [at 1.15 µM]
CCN(CC(=O)NC(C)(C)C)Cc1cc(=O)n2c(-c3ccccc3)csc2n1 | inconclusive: 13.1 µM [inhibitor, single point] | –
O=C(CN1C(=O)NC2(CCOc3ccccc32)C1=O)c1ccc(Br)cc1 (configuration not stated) | inconclusive: 14.7 µM [inhibitor, single point] | –
COc1ccc(NC(=O)Cn2cc(C(C)=O)c3ccccc32)cc1 | inconclusive: 0.329 µM [inhibitor, full curve, poor fit] | –
CCOC(=O)C1(Cc2cccc(Cl)c2)CCCN(C(=O)c2occc2C)C1 (configuration not stated) | inconclusive: 20.8 µM [inhibitor, partial curve, poor fit] | –
O=C(Nc1cccc2ccccc12)N1CC=C(c2ccccc2)CC1 | active: 0.104 µM | –
O=C(CNC(=O)c1ccccc1Br)N/N=C/c1ccc(O)cc1 | inconclusive: 1.85 µM [inhibitor, single point] | –
CCN(CC)C(=O)C1CCCN(Cc2cccc(Oc3ccccc3)c2)C1 (configuration not stated) | – | inactive: -15.7%
O=C1C(NS(=O)(=O)c2ccc(Cl)cc2)=C(N2CCCCC2)C(=O)c2ccccc21 | inconclusive: 4.65 µM [inhibitor, partial curve, poor fit] | –
Cc1ccc(C)c(S(=O)(=O)N2CCCOC2CNC(=O)C(=O)NCc2cccs2)c1 (configuration not stated) | inconclusive: 18.5 µM [inhibitor, single point] | –
CCc1nnc(NS(=O)(=O)c2ccc(NC(=O)c3ccccc3C)cc2)s1 | inconclusive: 2.08 µM [inhibitor, single point] | –
Nc1ccc(-c2c3ccc(=O)cc-3oc3cc(O)ccc23)c(C(=O)O)c1 | inconclusive: 0.928 µM [inhibitor, full curve] | –
CC(C)c1ccc2[nH]c3nc(SCC(=O)NC4CC4)nnc3c2c1 | inconclusive: 6.57 µM [inhibitor, partial curve, poor fit] | –
Cc1ccccc1OCC(=O)N/N=C/c1ccc2c(c1)OCCO2 | active: 2.62 µM | –
CC(C)NC(=S)N/N=C/c1ccc(C(C)(C)C)cc1 | inconclusive: 20.8 µM [inhibitor, partial curve, poor fit] | –
N/C(=N\OC(=O)c1cccc(Cn2cc(C(F)(F)F)ccc2=O)c1)c1ccc(Cl)cc1 | inconclusive: 20.8 µM [inhibitor, partial curve, poor fit] | –
O=C(COC(=O)c1ccccn1)NC(=O)c1ccccc1 | – | inactive: 20.2%
CCS(=O)(=O)N1CCN(c2ccc(C(=O)NC34CC5CC(CC(C5)C3)C4)cc2[N+](=O)[O-])CC1 | active: 5.86 µM | –
CCOc1cc(-c2sc(Nc3ccc(CC)cc3)n[n+]2-c2ccccc2)ccc1OC | inconclusive: 16.5 µM [inhibitor, partial curve, poor fit] | –
O=C(NCc1ccccc1)c1cc(=O)nc2sc(-c3ccccc3)nn12 | inconclusive: 1.17 µM [inhibitor, partial curve, poor fit] | –
Cc1sc2nc(-c3cccs3)nc(N3CCCN(C)CC3)c2c1C | inconclusive: 4.15 µM [inhibitor, single point] | –
CCN(CC)CC(O)Cn1c(-c2cccc(Cl)c2)nc2cc(C)c(C)cc21 (configuration not stated) | – | inactive: 0.998%

Structure (SMILES) | Potency | activity change, negative = inhibition
Cc1cc(OCC(=O)Nc2nnc(C3CC3)s2)ccc1[N+](=O)[O-] | inconclusive: 0.0738 µM [inhibitor, full curve, poor fit] | –
CCN1CCN(S(=O)(=O)c2ccc3[nH]c(=O)oc3c2)CC1 | inconclusive: 18.5 µM [inhibitor, single point] | –
Cc1ccc(OCCC(=O)NNC(=O)c2nn(C)c(=O)c3ccccc23)cc1 | inconclusive: 8.28 µM [inhibitor, partial curve, poor fit] | –
O=C(Nc1ccccc1)Nc1cc(OCC(F)(F)F)cc(OCC(F)(F)F)c1 | active: 3.29 µM | –
CCCC(=O)Nc1cc(C(=O)O)ccc1S(=O)(=O)c1ccc(Cl)cc1 | inconclusive: 13.1 µM [inhibitor, single point] | –
COc1ccc(CN(C)C(C)C(=O)Nc2ccc(S(=O)(=O)N3CCCCC3)cc2)cc1F (configuration not stated) | inconclusive: 3.29 µM [inhibitor, partial curve, poor fit] | –
Cc1cc(=O)oc2cc(OCC(=O)N3CCCC(C)C3)ccc12 (configuration not stated) | – | inactive: 15.9% [at 5.75 µM]
O=C(CSc1nnc(NC(=O)c2ccco2)s1)Nc1ccccc1Br | – | inactive: 9.22%
COc1ccc(-n2nc(C(=O)NCC(=O)N3CCOCC3)c3ccccc3c2=O)cc1OC | inconclusive: 0.0026 µM [inhibitor, full curve, poor fit] | –
Cc1ccccc1NC1c2ccccc2C(=O)N1Cc1ccco1 (configuration not stated) | active: 8.28 µM | –
CCCCC(O)(CCCC)C(=O)N/N=C(\C)c1ccc(Cl)cc1 | – | inactive: 0%
O=C(COc1ccc(S(=O)(=O)NC2CCCCC2)cc1Cl)Nc1ccc2c(c1)OCO2 | active: 10.4 µM | –
O=S(=O)(Cc1cc(Cl)nc(-c2cccnc2)n1)c1ccccc1 | inconclusive: 0.465 µM [inhibitor, full curve, poor fit] | –
CC(C)(C)NC(=O)C(=O)N/N=C/c1cccs1 | – | inactive: 109%
Cc1ccc(S(=O)(=O)N2CCN(C(=O)c3ccccc3OCc3c(C)noc3C)CC2)cc1 | inconclusive: 11.7 µM [inhibitor, single point] | –
CCc1nnc(NC(=O)c2ccc(-c3ccccc3F)o2)s1 | inconclusive: 18.5 µM [inhibitor, single point] | –
CCC(C)SCc1nc2ccccc2[nH]1 (configuration not stated) | inconclusive: 10.4 µM [inhibitor, partial curve, poor fit] | –
OC(CNCC1COc2ccccc2O1)COc1ccc(Cl)cc1 (configuration not stated) | inconclusive: 18.5 µM [inhibitor, single point] | –
Cc1ccc(NC(=O)c2cccc(S(=O)(=O)N3CCN(C)CC3)c2)cc1F | inconclusive: 18.5 µM [inhibitor, single point] | –
O=[N+]([O-])C1=CC=C2C(=NC3(CCCCC3)N2O)C1=NCCc1ccccc1 | inconclusive: 16.5 µM [inhibitor, single point] | –
CC(C)CN(CC(C)C)C(=O)Nc1cccc([N+](=O)[O-])c1 | inconclusive: 18.5 µM [inhibitor, single point] | –

Shown as tab-separated lines: 3 of the compounds above.
Structure (SMILES)	Potency	activity change, negative = inhibition
CCN(CC)CC(O)Cn1c(-c2cccc(Cl)c2)nc2cc(C)c(C)cc21 (configuration not stated)	–	inactive: 0.998%
Cc1cc(OCC(=O)Nc2nnc(C3CC3)s2)ccc1[N+](=O)[O-]	inconclusive: 0.0738 µM [inhibitor, full curve, poor fit]	–
CCN1CCN(S(=O)(=O)c2ccc3[nH]c(=O)oc3c2)CC1	inconclusive: 18.5 µM [inhibitor, single point]	–
